Assay results from publication doi:10.1101/2024.04.30.591961.
Like-named read-outs stand apart in the source and are kept apart here. No constants are given. Whether binding was seen depends on the method and setting. In cells and extracts the contact can be indirect. Binding can be weak; no strength is given. For some assays here: Sequences can lack the tags named with a protein.

By UniProt entry, the sequences of proteins in these tests, tags left out. Where a name states a change or a piece, a line headed by the entry shows the natural chain unless it says otherwise. Residues count along the entry.
UniProt P09110: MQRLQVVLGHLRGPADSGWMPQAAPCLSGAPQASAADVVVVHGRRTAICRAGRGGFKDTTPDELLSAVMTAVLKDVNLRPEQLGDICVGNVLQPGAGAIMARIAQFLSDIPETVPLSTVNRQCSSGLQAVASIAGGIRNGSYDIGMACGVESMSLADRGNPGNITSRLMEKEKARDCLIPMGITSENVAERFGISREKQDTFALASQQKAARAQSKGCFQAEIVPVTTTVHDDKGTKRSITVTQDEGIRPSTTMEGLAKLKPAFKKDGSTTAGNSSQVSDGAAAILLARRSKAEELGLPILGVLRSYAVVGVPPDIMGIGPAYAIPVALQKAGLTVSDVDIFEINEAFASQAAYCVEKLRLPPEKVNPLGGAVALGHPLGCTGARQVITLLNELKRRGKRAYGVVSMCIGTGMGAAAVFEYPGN
UniProt O14832: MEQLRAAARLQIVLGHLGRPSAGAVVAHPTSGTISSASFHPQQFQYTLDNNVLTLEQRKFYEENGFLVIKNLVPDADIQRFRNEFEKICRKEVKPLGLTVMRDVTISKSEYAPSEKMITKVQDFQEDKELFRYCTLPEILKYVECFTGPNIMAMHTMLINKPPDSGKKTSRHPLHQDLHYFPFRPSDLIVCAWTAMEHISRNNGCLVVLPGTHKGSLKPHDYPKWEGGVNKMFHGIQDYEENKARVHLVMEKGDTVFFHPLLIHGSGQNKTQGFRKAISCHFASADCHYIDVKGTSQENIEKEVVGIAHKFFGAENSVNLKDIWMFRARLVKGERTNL
UniProt Q5I0X4: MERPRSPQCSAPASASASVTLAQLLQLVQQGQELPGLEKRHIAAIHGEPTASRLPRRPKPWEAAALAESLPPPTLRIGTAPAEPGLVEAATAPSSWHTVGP
UniProt P27824, residues 21-592: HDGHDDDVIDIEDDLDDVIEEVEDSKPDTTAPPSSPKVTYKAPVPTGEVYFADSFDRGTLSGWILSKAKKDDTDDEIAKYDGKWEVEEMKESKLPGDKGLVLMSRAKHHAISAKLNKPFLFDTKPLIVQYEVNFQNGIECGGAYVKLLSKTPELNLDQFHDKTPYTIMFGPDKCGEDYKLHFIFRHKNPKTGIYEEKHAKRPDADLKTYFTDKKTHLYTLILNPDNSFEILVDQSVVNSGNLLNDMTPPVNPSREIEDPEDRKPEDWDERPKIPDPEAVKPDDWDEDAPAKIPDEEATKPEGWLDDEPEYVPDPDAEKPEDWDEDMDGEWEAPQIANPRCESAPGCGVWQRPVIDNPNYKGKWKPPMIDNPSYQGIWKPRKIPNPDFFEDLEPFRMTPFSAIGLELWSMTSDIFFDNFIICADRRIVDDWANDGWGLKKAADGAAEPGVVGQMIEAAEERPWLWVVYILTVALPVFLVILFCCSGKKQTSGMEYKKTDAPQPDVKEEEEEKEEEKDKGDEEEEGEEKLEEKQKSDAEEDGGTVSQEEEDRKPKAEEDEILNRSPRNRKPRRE
UniProt Q92968: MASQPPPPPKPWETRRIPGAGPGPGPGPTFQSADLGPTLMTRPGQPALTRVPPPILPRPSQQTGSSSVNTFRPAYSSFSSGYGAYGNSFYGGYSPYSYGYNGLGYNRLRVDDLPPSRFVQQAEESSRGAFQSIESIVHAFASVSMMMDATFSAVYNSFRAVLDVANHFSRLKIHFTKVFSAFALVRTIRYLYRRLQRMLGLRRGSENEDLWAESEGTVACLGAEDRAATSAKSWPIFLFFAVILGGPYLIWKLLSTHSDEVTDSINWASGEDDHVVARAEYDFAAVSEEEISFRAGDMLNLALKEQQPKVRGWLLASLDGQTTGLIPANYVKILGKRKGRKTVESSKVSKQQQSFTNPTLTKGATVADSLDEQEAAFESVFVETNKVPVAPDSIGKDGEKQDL
UniProt O00116: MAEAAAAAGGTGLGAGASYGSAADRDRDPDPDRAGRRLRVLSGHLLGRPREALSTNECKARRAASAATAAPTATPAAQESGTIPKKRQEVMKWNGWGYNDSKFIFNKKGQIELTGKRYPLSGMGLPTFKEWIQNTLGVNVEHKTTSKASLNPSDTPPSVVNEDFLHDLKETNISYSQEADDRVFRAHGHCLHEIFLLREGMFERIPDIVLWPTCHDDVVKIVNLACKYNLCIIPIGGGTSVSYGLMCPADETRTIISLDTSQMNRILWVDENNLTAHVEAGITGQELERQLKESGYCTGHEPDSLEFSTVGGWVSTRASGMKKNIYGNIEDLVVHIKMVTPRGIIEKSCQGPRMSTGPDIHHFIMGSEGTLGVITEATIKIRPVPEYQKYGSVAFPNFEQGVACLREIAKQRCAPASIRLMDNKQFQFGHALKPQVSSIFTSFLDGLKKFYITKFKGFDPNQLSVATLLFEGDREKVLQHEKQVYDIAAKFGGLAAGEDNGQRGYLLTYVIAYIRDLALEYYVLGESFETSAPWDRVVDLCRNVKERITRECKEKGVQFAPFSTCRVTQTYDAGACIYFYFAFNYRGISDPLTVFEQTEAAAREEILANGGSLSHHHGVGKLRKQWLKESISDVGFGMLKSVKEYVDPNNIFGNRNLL

Tests used:
Assay in all cases: co-IP
ACAA1-FLAG-HA (human) [1] = biological target: ACAA1-FLAG-HA (human) (UniProt P09110)
PHYH-FLAG-HA (human) [2] = biological target: PHYH-FLAG-HA (human) (UniProt O14832)
ACAA1-FLAG-HA (human) [3] = biological target: ACAA1-FLAG-HA (human) (UniProt P09110); remark: listed apart in the source
PHYH-FLAG-HA (human) [4] = biological target: PHYH-FLAG-HA (human) (UniProt O14832); remark: listed apart in the source
HsPEX39-FLAG-HA (human) [5] = biological target: HsPEX39-FLAG-HA (human) (UniProt Q5I0X4)
PEX7-FLAG-HA (human) [6] = biological target: T1, PEX7-FLAG-HA (human) (UniProt O00628)
T1 sequence: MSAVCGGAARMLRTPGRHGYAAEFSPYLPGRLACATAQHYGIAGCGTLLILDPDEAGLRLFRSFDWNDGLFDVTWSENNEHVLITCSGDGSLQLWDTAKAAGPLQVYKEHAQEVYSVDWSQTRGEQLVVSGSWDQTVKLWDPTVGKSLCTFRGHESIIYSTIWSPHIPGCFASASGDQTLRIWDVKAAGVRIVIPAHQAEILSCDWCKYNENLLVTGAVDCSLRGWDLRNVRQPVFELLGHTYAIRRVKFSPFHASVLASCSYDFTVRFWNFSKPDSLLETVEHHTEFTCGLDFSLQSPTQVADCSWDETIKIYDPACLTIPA

HsPEX39-FLAG-HA (human) [7] = biological target: HsPEX39-FLAG-HA (human) (UniProt Q5I0X4); remark: listed apart in the source
PEX7-FLAG-HA (human) [8] = biological target: T1, PEX7-FLAG-HA (human); remark: listed apart in the source

Row | binding (ACAA1-FLAG-HA (human) [1]) | binding (PHYH-FLAG-HA (human) [2]) | binding (ACAA1-FLAG-HA (human) [3]) | binding (PHYH-FLAG-HA (human) [4]) | binding (HsPEX39-FLAG-HA (human) [5]) | binding (PEX7-FLAG-HA (human) [6]) | binding (HsPEX39-FLAG-HA (human) [7]) | binding (PEX7-FLAG-HA (human) [8]) | Substance
1 | no binding | no binding |  |  |  |  |  |  | calnexin (CANX) (from UniProt P27824 21-592)
2 |  |  |  |  | binds | binds | binds | binds | endogenous ACAA1 (precursor form) (from UniProt P09110) (enzyme)

Second part, the substance before the results:

Row | Substance | binding (ACAA1-FLAG-HA (human) [1]) | binding (PHYH-FLAG-HA (human) [2]) | binding (ACAA1-FLAG-HA (human) [3]) | binding (PHYH-FLAG-HA (human) [4]) | binding (HsPEX39-FLAG-HA (human) [5]) | binding (PEX7-FLAG-HA (human) [6]) | binding (HsPEX39-FLAG-HA (human) [7]) | binding (PEX7-FLAG-HA (human) [8])
3 | endogenous HsPEX39 (from UniProt Q5I0X4 1-101) | binds | binds | binds | binds |  |  |  | 
4 | endogenous HsPEX13 (from UniProt Q92968 1-403) | binds | binds |  |  |  |  |  | 
5 | endogenous PHYH (precursor form) (from UniProt O14832) (enzyme) |  |  |  |  | binds | binds | binds | binds
6 | endogenous alkyl-DHAP synthase (AGPS) (precursor form) (from UniProt O00116) (enzyme) |  |  |  |  | binds | binds | binds | binds
